No constants are given. Whether binding was seen depends on the method and setting. For part of these data: In cells and extracts the contact can be indirect. Some binding calls cover weakened binding; strength is not graded here.
What was measured:
[1] = target: sarcoplasmic/endoplasmic reticulum calcium-ATPase 2a (SERCA2a), ECFP- and EYFP-fused copies (human) (UniProt P16615); assay: FRET or BRET; ECFP-SERCA2a and EYFP-SERCA2a (1:1 molar ratio) in HEK293 cells together with empty vector, HA-SPEG WT, SPEG D3098A or SPEG 3A; sensitized emission FRET on a Leica SP5 confocal microscope
[2] = target: sarcoplasmic/endoplasmic reticulum calcium-ATPase 2a (SERCA2a), Flag-tagged and HA-tagged copies (human) (UniProt P16615); assay: co-IP; HA-SERCA2a co-expressed with Flag-SERCA2a in HEK293 cells together with GFP, GFP-SPEG WT, SPEG D3098A or SPEG 3A; Flag-SERCA2a immunoprecipitated, HA-SERCA2a detected by immunoblotting
[3] = target: sarcoplasmic/endoplasmic reticulum calcium-ATPase 2a (SERCA2a), Flag-tagged and HA-tagged copies (human) (UniProt P16615); assay: western blot of high molecular weight (oligomeric) species; Flag-SERCA2a co-expressed with GFP or GFP-SPEG WT or mutant proteins in HEK293 cells; high molecular weight SERCA2a detected by western blot and quantified

Chains of the proteins cited; added tags and fusions are not shown. Lines headed by an entry give the natural chain unless they say otherwise; changes in a name come on top. A line that says so, or that is headed by a name, gives the form on record, which may keep a tag or linker.
sarcoplasmic/endoplasmic reticulum calcium-ATPase 2a (SERCA2a), Flag-tagged and HA-tagged copies (P16615-2, form named): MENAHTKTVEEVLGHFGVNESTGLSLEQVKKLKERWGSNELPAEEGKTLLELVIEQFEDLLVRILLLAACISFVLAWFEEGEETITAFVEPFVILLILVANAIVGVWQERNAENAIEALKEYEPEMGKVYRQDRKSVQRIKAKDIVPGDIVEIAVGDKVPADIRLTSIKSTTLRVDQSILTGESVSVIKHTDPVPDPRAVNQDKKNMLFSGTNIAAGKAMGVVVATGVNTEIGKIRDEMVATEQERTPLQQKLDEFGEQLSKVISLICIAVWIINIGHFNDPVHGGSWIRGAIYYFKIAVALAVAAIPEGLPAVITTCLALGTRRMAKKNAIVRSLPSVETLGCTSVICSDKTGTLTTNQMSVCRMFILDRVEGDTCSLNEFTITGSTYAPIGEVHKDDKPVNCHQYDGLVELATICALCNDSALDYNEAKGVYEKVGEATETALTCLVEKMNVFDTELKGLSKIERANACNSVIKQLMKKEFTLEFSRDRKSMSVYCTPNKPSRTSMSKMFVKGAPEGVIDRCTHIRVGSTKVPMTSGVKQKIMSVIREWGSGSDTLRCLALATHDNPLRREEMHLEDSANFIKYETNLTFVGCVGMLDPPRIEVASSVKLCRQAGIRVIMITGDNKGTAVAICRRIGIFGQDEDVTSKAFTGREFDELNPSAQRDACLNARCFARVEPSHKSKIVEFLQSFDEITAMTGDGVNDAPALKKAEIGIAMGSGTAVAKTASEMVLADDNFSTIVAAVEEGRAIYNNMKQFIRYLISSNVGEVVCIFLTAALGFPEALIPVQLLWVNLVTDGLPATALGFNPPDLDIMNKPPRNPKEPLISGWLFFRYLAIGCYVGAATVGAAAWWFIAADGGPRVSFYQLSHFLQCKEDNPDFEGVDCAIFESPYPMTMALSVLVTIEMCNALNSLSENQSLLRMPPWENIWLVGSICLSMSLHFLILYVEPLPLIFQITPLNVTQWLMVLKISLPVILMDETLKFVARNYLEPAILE

Substance: sarcoplasmic/endoplasmic reticulum calcium-ATPase 2a (SERCA2a), ECFP- and EYFP-fused copies (from UniProt P16615-2 1-997) (enzyme)
- binding [1]: binds

Substance: sarcoplasmic/endoplasmic reticulum calcium-ATPase 2a (SERCA2a), Flag-tagged and HA-tagged copies (from UniProt P16615-2 1-997) (enzyme)
- binding [2]: binds
- binding [3]: binds
